Results on one substance are retold here after paper PMC4219662.

Amino acid sequences for entries named in this document (tags omitted). A change or cut given only in a name is not applied to a line headed by its entry.
UniProt Q7KN62: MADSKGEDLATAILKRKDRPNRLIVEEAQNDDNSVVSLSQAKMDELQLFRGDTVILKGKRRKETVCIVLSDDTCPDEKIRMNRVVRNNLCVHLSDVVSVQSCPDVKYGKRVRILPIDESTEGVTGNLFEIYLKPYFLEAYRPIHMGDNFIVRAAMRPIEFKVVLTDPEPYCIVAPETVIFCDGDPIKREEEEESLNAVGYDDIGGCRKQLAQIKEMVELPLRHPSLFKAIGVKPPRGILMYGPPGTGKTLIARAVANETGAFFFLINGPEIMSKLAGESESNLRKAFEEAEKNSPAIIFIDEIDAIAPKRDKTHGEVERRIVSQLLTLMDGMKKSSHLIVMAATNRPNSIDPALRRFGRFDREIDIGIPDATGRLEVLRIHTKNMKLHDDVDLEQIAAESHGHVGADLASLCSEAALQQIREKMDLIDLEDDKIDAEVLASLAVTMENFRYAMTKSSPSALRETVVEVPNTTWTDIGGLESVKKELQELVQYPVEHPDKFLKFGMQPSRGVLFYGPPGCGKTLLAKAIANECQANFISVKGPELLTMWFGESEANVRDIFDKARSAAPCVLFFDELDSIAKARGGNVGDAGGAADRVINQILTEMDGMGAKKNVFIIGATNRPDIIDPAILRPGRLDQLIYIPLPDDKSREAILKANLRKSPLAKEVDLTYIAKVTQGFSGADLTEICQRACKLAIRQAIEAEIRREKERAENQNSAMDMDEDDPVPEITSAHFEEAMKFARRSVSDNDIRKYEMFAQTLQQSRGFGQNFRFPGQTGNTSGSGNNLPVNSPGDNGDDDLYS
UniProt E2QCH8: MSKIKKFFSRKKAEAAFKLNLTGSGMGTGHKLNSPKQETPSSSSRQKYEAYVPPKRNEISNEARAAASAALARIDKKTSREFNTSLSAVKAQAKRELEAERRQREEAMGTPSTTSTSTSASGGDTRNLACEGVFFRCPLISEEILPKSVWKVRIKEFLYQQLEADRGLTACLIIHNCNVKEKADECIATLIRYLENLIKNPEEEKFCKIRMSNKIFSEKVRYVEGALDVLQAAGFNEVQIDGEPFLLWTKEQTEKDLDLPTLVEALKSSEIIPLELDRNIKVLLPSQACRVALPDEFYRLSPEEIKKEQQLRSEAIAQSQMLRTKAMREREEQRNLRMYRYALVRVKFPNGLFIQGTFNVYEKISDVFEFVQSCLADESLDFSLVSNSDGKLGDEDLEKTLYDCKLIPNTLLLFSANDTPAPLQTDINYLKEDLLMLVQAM

The assay concerns the target Ter94^HA (Drosophila) (UniProt Q7KN62). Nature of the assay: co-IP; Ter94^HA co-expressed with FLAG-tagged Als variants in Kc-167 cells; reciprocal immunoprecipitation with anti-FLAG or anti-HA on Protein-A Sepharose, 3 h at 4°C, lysis buffer with 200 mM NaCl and 0.5% Nonidet P-40; Western blot.

No constants are given. Whether binding was seen depends on the method and setting. Binding seen in cells or lysates may run through a third protein. A result given as binding can be weak or reduced; the word gives no strength.

Consider endogenous Als (from UniProt E2QCH8), for which the binding result was “binds”.
